The target in assay [1] is T1, macrophage-inducible C-type lectin (Mincle) receptor (mouse (endogenous in primary microglia and brain tissue)) (UniProt Q9R0Q8).
T1 sequence: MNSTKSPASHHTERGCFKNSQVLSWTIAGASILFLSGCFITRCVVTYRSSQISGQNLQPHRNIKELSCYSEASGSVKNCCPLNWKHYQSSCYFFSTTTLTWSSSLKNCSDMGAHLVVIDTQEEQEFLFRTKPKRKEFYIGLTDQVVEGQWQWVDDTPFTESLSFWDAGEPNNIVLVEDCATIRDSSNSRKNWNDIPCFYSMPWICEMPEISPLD
As to the kind of experiment: co-IP; RIPA lysates of brain tissue (ischemic brain); IP with mouse anti-Mincle or control mouse IgG, Protein A/G PLUS-agarose; blot with anti-properdin.

Chains of the proteins cited; added tags and fusions are not shown. Residues count along the entry.
UniProt P11680, residues 23-464: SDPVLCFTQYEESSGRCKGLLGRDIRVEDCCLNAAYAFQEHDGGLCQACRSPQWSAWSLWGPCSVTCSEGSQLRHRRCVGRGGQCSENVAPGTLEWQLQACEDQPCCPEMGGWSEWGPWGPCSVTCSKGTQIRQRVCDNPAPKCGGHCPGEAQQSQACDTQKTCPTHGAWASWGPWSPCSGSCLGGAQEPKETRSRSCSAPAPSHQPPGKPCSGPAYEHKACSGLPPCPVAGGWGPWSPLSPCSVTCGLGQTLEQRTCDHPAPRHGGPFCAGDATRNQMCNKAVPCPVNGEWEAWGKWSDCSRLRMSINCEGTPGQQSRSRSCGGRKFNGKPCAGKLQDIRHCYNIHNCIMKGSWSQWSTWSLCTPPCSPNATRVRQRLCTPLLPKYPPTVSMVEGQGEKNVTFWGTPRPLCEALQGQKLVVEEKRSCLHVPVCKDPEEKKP

In assay [2] the target is T1, macrophage-inducible C-type lectin (Mincle) receptor (mouse (endogenous in primary microglia and brain tissue)). Put plainly: co-IP; RIPA lysates (500 µg protein) of primary microglia treated with or without 8 µg/ml rmProperdin; IP with 2 µg mouse anti-Mincle or control mouse IgG overnight at 4 °C, Protein A/G PLUS-agarose; blot with anti-properdin and anti-Mincle; only the binder purified.

Assay [3] shares this target. As to the kind of experiment: proximity ligation; Duolink PLA on fixed, permeabilised primary microglia treated with rmProperdin or left as control; mouse anti-Mincle and rabbit anti-properdin; signal if probes < 40 nm apart; only the binder purified.

These are yes or no findings as the source states them, for the method shown. In cells and extracts the contact can be indirect. Some binding calls cover weakened binding; strength is not graded here.

For “properdin (endogenous, ischemic brain tissue) (from UniProt P11680 23-464)”, the binding entry in assay [1] is on record as “binds”.

In the case of “eukaryotic recombinant mouse properdin (from UniProt P11680 23-464)”, the binding result in assay [2] and in assay [3] was “binds” throughout.

Values taken from paper PMC10640761.
